Results published in patent US20110218229A1, “SIRT1 Modulation of Adipogenesis and Adipose Function” (priority 2003, published 2011).
At least one structure is not confirmed: it was looked up by name or label, or the drawing left a doubt.

Test system: 3T3-L1 fibroblasts
Assay: 3T3-L1 adipogenesis / differentiation (Oil Red O staining)
Assay type: cell-based, mouse
Procedure: The 3T3-L1 mouse fibroblasts used in this example, and in Examples 4-10 hereinafter, were prepared in accordance with standard protocol as follows. 3T3-L1 cells (ATCC CL-173, Rockville, Md.) were grown to confluence (day 0) in medium A (Dulbecco's modified Eagle's Medium with 10% fetal calf serum, 100 units/ml penicillin, and 100 μg/ml streptomycin). Confluent cell were incubated in medium A containing 2 μM insulin, 1 μM dexamethasone, and 0.25 mM isobuthyl methyl xanthine for two days. Thereafter, confluent fibroblasts were treated with insulin for five days and at the end of such treatment were in a condition for functional study. Adipogenesis was evaluated by analysis of the expression of adipocyte-specific markers and by staining of lipids with Oil Red O (Chawla & Lazar, 1994, Proc. Natl. Acad. Sci. USA 91, 1786-1790). […]
To stimulate adipogenesis and accumulation of lipids in cells, medium was supplemented to confluent cells (day 0) with 2 μM insulin or 10^−7M rosiglitazone (Alexis Biochemicals), as stated in the text, 1 μM dexamethasone, and 0.25 mM isobuthylmethylxanthine (IBMX) for 2 days. […] Fat accumulation was visualized by staining of lipids with Oil red O. Intracellular triglyceride levels were measured in cell lysates by an enzymatic method using a reagent kit from Boehringer Mannheim.

SMILES: CN(CCOc1ccc(CC2SC(=O)NC2=O)cc1)c1ccccn1 (centres unmarked) [rosiglitazone]
- phenotypes of cells with increased or decreased levels of Sirt1 (differentiation with rosiglitazone instead of insulin): did not alter the phenotypes
- adipogenesis (virally transduced 3T3-L1 differentiated without insulin, with 10^−7M rosiglitazone, versus regular differentiation cocktail): promoted adipogenesis to a greater extent than the regular differentiation cocktail
